Source: paper doi:10.1101/2021.10.12.462922 (bioRxiv, 2021)
Results are given in words; binding and its absence hold for the method and conditions named. Some results given as binding are weak or reduced against the parent protein; the word gives no strength.

Biological target: T1, HMG20A, human, recombinant from insect cells (human), Q9NP66
T1 chain: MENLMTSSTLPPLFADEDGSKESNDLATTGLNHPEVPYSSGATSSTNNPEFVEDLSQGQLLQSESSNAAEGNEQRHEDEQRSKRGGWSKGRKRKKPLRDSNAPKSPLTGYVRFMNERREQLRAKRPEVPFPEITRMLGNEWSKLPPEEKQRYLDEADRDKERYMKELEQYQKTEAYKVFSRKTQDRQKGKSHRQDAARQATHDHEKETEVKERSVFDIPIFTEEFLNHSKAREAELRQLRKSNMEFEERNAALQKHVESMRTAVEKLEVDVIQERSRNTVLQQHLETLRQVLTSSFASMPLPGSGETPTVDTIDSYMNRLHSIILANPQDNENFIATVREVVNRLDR
Test: cross-linking
Settings: remark: other sources report otherwise

binding: binds
B1: HMG20A, human, recombinant from insect cells, Q9NP66 1-347 (protein)
chain: MENLMTSSTLPPLFADEDGSKESNDLATTGLNHPEVPYSSGATSSTNNPEFVEDLSQGQLLQSESSNAAEGNEQRHEDEQRSKRGGWSKGRKRKKPLRDSNAPKSPLTGYVRFMNERREQLRAKRPEVPFPEITRMLGNEWSKLPPEEKQRYLDEADRDKERYMKELEQYQKTEAYKVFSRKTQDRQKGKSHRQDAARQATHDHEKETEVKERSVFDIPIFTEEFLNHSKAREAELRQLRKSNMEFEERNAALQKHVESMRTAVEKLEVDVIQERSRNTVLQQHLETLRQVLTSSFASMPLPGSGETPTVDTIDSYMNRLHSIILANPQDNENFIATVREVVNRLDR
